Reference: US7468281B2, “Hollow fiber membrane sample preparation devices” (priority 2001, dated 2008)

Assay: LPME of drugs from human plasma, urine and whole blood with vial format device, CZE analysis
Type: physicochemical

COc1ccc2cc([C@H](C)C(=O)O)ccc2c1 [Naproxen, naproxen]
Detection limit (human urine, 226 nm): 2 ng/mL

CN[C@@H](C)Cc1ccccc1 [methamphetamine]
Detection limit (human urine or plasma, UV 200 nm): 5 ng/mL

CNCCCC1(c2ccc(F)cc2)OCc2cc(C#N)ccc21 (stereo not drawn) [N-desmethyl metabolite, N-desmethylcitalopram]
Detection limit (human plasma, 200 nm): 5 ng/mL
